Measurements as given in article PMC7862700.
The entries are a selection whose mix differs from that of the whole data set. For some assays here: At the low end of the ranking, values are background and their order means little. The list shows a part of the results. For some assays here: The source does not settle which construct or isoform was used.

Amino acid sequences for entries named in this document (tags omitted). A change or cut given only in a name is not applied to a line headed by its entry.
UniProt P32519: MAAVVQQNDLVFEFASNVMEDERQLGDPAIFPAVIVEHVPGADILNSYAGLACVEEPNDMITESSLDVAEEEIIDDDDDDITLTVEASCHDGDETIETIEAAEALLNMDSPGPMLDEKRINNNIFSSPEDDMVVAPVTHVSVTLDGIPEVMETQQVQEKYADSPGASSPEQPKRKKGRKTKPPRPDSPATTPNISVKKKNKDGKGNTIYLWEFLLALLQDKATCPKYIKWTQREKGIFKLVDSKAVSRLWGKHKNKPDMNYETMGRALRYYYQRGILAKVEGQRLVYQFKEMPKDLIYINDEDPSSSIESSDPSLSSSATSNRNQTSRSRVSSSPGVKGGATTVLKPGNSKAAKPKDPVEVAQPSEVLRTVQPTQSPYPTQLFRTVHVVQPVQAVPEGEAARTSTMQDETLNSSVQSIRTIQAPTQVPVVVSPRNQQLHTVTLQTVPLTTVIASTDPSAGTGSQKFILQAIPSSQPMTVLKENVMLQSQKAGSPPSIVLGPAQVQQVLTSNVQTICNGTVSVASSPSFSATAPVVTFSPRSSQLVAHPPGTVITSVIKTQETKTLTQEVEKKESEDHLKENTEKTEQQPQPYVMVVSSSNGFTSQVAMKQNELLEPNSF
UniProt P50549: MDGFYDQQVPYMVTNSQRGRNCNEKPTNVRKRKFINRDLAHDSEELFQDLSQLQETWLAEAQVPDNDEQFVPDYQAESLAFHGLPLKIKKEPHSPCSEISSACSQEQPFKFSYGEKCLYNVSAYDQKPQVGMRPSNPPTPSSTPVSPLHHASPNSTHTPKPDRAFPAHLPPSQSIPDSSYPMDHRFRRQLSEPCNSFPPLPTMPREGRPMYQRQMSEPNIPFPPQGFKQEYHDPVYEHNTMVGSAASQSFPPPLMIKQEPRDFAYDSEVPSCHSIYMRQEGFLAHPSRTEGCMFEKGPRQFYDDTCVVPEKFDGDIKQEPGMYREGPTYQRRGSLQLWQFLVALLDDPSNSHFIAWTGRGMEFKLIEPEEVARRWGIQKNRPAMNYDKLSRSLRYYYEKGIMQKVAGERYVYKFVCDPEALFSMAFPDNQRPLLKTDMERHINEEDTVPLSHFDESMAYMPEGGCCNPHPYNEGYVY

Legend:
Assay in all cases: DAPPL (digital affinity profiling via proximity ligation, sequencing)
Conditions in all cases: 10 mM Tris-HCl pH 7.5, 50 mM NaCl, 1 mM DTT, 4% glycerol, room temperature, 30 min; GST-TFs on glutathione beads, 16-mer random dsDNA library, 0.1% …; high values mean tight binding; double strand, one strand shown; scale: fold enrichment (6-mer frequency, TF over GST control)
ERG = molecular target: T1, ERG (UniProt P11308)
T1 sequence: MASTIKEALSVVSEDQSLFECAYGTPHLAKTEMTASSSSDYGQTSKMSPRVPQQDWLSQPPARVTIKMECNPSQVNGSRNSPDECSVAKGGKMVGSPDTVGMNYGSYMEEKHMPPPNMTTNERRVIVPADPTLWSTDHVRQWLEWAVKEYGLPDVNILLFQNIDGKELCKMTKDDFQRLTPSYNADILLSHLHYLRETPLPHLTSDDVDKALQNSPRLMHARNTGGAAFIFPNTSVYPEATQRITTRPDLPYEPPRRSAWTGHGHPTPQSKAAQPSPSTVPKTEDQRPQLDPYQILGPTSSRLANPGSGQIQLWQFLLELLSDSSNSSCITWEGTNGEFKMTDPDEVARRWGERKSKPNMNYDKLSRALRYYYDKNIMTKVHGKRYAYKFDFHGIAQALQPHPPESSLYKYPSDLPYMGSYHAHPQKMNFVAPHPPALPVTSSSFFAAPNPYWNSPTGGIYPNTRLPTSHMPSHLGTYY

ELF1 = ELF1 (UniProt P32519)
ELK4 = molecular target: T2, ELK4 (UniProt P28324-2)
T2 sequence: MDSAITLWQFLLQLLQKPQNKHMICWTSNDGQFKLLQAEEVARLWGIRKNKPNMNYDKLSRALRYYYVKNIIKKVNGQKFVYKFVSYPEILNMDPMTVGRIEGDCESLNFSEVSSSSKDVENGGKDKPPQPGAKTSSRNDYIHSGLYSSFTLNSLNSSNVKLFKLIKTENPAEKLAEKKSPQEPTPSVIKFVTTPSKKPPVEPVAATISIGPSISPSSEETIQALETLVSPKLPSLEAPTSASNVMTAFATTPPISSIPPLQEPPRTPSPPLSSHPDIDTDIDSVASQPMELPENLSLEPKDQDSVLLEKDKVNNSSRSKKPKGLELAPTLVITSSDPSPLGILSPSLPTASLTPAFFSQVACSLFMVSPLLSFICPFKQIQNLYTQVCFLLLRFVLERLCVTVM

ETV4 = molecular target: T3, ETV4 (UniProt P43268)
T3 sequence: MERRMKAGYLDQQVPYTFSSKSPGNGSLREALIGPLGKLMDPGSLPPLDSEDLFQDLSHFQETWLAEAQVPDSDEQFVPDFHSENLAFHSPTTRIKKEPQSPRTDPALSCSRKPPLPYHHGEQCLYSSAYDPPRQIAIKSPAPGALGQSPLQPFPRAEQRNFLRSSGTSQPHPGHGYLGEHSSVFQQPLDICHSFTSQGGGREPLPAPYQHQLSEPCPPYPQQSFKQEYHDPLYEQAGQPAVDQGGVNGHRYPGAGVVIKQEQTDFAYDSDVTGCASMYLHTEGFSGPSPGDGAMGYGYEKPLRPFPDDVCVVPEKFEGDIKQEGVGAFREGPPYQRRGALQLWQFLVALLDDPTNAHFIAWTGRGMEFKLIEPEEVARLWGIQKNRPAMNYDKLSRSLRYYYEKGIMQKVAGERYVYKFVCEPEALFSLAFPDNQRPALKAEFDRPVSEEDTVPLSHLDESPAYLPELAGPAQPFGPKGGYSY

ETV1 = ETV1 (UniProt P50549)
ERF = molecular target: T4, ERF (UniProt P50548)
T4 sequence: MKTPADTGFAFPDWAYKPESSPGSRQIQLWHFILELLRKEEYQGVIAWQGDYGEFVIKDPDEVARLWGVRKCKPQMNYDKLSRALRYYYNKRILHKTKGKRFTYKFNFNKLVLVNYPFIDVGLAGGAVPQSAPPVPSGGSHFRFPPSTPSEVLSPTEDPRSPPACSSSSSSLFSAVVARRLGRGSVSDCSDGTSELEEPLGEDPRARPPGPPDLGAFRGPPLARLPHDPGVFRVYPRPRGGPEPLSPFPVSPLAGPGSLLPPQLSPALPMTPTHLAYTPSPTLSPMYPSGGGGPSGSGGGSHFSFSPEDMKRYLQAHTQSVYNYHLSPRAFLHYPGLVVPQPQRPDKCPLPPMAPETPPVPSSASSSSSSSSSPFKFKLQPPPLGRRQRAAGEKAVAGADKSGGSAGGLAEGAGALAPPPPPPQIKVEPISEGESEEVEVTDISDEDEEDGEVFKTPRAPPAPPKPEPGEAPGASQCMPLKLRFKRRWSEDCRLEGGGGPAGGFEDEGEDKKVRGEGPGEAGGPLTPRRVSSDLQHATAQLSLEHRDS

| Sequence | binding signal (ERG) | binding signal (ELF1) | binding signal (ELK4) | binding signal (ETV4) | binding signal (ETV1) | binding signal (ERF) |
| --- | --- | --- | --- | --- | --- | --- |
| GGCGTT | 0.955 | 0.91 | 0.896 | 0.923 | 0.992 | – |
| CAAAGA | 0.974 | – | 0.973 | 0.925 | – | 0.871 |
| TGCCGG | 1.13 | – | 0.987 | 1.08 | – | 0.973 |
| AGTTAC | 1 | 0.917 | 0.942 | 1.03 | 0.982 | – |
| AGCATC | 1.04 | – | 0.963 | 1.06 | – | 0.971 |
| TAAGCG | 1.02 | – | 0.916 | 0.95 | – | 0.991 |
| CCGCGC | 1.2 | 1.18 | 1.35 | 1.15 | 1.06 | – |
| ACTTAG | 1.09 | – | 0.999 | 1.11 | – | 1.17 |
| GTAGAT | 0.964 | 0.951 | 1.01 | 0.897 | 0.912 | – |
| CACGGC | 0.971 | – | 0.957 | 1.02 | – | 0.968 |
| CAGACT | 0.985 | – | 0.93 | 1.05 | – | 0.94 |
| TTCGAC | 1.43 | – | 1.43 | 1.47 | – | 1.43 |
| CTATGT | 0.989 | – | 1.15 | 1.17 | – | 1.08 |
| CTACAC | 1.34 | 1.33 | 1.23 | 1.35 | 1.28 | – |
| GTTGTA | 0.976 | – | 0.994 | 1.09 | – | 0.87 |
| ACTCGG | 0.98 | – | 0.998 | 1 | – | 1.04 |
| GATCAA | 0.996 | 1.04 | 0.928 | 0.969 | – | – |
| AGTAGC | 0.939 | 0.971 | 0.946 | 1.03 | – | – |
| TTGTCA | 0.978 | 1.13 | 1.21 | 1.17 | – | – |
| GGAAGA | 1.2 | 1.02 | 0.894 | 1.09 | – | 1.03 |
| ATAGCC | 0.984 | 1.05 | 0.979 | 1.06 | – | – |
| ATTGAG | 0.978 | 1 | 0.969 | 1.02 | – | – |

| Sequence | binding signal (ERG) | binding signal (ELF1) | binding signal (ELK4) | binding signal (ETV4) | binding signal (ETV1) | binding signal (ERF) |
| --- | --- | --- | --- | --- | --- | --- |
| ACCTGT | 0.988 | 0.967 | 0.971 | 1.08 | – | 1.08 |
| TCGTCA | 0.992 | 1.04 | 0.992 | 1.05 | – | – |
| TTCAAT | 1.41 | 1.37 | 1.42 | 1.32 | – | – |
| AAGATG | 1.11 | 1.09 | 1.22 | 1.15 | – | – |
| GGGTTT | – | – | 1.12 | 1.01 | 1.1 | – |
| GGCTTG | 1.09 | 0.973 | 1.12 | 1.13 | – | – |
| GCCCGC | – | – | 1.15 | 1.19 | 1.06 | – |
| CTCCCA | 1.38 | 1.41 | 1.44 | 1.49 | – | – |
| GATTCG | 0.904 | 0.985 | 0.878 | 1.04 | – | 0.917 |
| TGTACA | 1.24 | 1.23 | 1.17 | 1.28 | – | – |
| CAGCTC | 0.997 | 1.06 | 0.995 | 1.05 | – | – |
| ATGAGG | 0.951 | 0.95 | 0.905 | 0.878 | – | 0.984 |
| AGTAAA | 0.954 | 0.974 | 0.979 | 0.965 | – | – |
| GTCCTG | 1.17 | 1.15 | 0.974 | 1.14 | – | 1.08 |
| GTCAAA | 0.997 | 0.946 | 0.987 | 0.938 | – | 0.887 |
| AGTTTA | 0.955 | 0.983 | 0.946 | 0.956 | – | – |
| CATAAA | 0.998 | 0.967 | 0.973 | 1.05 | – | 0.993 |
| CGTTGG | 0.859 | 0.944 | 0.9 | 0.966 | – | – |
| TGCGAC | 1.26 | 1.22 | 1.25 | 1.18 | – | 1.22 |
| GGGTAT | 0.972 | 0.938 | 1.1 | 0.904 | – | 0.908 |
| GACGAC | 0.939 | 0.915 | 1 | 1.06 | – | 0.944 |

Part of the list above, field by field:
AAGATG
  binding signal (ERG): 1.11; binding signal (ELF1): 1.09; binding signal (ELK4): 1.22; binding signal (ETV4): 1.15
CATAAA
  binding signal (ERG): 0.998; binding signal (ELF1): 0.967; binding signal (ELK4): 0.973; binding signal (ETV4): 1.05; binding signal (ERF): 0.993
